These are yes or no findings as the source states them, for the method shown. In cells and extracts the contact can be indirect. Some entries that bind do so weakly or less than the wild type.

The target in test [1] is T1, P-selectin glycoprotein ligand 1 (human (endogenous in primary neutrophils)) (UniProt Q14242).
T1 sequence: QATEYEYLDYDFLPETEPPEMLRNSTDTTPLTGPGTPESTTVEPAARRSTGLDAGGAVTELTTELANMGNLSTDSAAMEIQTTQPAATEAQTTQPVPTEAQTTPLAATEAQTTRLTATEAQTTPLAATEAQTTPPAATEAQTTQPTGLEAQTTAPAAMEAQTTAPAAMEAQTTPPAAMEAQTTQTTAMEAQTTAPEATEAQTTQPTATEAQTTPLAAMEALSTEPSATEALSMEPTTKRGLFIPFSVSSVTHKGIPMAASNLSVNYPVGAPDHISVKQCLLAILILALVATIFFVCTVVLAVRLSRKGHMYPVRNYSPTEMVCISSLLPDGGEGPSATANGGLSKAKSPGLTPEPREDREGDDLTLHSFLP
Kind of test: co-IP; lysates of primary human neutrophils, resting or stimulated with 1 nM fNLPNTL for 10 min; lysis buffer 0.5% NP-40, 50 mM NaCl, 50 mM Tris, pH 8; IP with murine anti-PSGL-1 antibody or control murine IgG; blot probed for PSGL-1 and flotillin-2.

Test [2] has as its target T1, P-selectin glycoprotein ligand 1 (human (endogenous in primary neutrophils)). Kind of test: co-IP; data not shown (n = 2): IP of primary human neutrophil lysates with murine anti-PSGL-1 antibody; blot probed with a murine anti-flotillin-1 antibody.
Test [3] addresses T2, flotillin-2 (human (endogenous in primary neutrophils)) (UniProt Q14254).
T2 sequence: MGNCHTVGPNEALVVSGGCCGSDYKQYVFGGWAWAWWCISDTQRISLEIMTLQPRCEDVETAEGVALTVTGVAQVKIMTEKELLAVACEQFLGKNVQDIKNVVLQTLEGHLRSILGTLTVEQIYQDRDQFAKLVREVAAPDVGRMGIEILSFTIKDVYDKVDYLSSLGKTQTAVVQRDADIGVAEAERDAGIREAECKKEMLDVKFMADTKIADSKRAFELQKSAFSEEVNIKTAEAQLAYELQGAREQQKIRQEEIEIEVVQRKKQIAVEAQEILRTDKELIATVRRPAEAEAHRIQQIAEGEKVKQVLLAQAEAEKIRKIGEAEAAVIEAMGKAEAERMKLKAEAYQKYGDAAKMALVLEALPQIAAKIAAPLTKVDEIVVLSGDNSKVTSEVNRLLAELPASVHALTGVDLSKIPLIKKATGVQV
As to the kind of experiment: co-IP; lysates of primary human neutrophils, resting or stimulated with 1 nM fNLPNTL for 5 min; lysis buffer 0.5% NP-40, 50 mM NaCl, 50 mM Tris, pH 8; IP with rabbit anti-flotillin-2 antibody and protein A or G beads; blot probed for flotillin-1 and flotillin-2.

B1: flotillin-2 (protein, UniProt Q14254 1-428)
chain: MGNCHTVGPNEALVVSGGCCGSDYKQYVFGGWAWAWWCISDTQRISLEIMTLQPRCEDVETAEGVALTVTGVAQVKIMTEKELLAVACEQFLGKNVQDIKNVVLQTLEGHLRSILGTLTVEQIYQDRDQFAKLVREVAAPDVGRMGIEILSFTIKDVYDKVDYLSSLGKTQTAVVQRDADIGVAEAERDAGIREAECKKEMLDVKFMADTKIADSKRAFELQKSAFSEEVNIKTAEAQLAYELQGAREQQKIRQEEIEIEVVQRKKQIAVEAQEILRTDKELIATVRRPAEAEAHRIQQIAEGEKVKQVLLAQAEAEKIRKIGEAEAAVIEAMGKAEAERMKLKAEAYQKYGDAAKMALVLEALPQIAAKIAAPLTKVDEIVVLSGDNSKVTSEVNRLLAELPASVHALTGVDLSKIPLIKKATGVQV
With B1, the binding result in test [1] is recorded as “binds”.

B2: flotillin-1 (protein, UniProt O75955-1 1-427)
chain: MFFTCGPNEAMVVSGFCRSPPVMVAGGRVFVLPCIQQIQRISLNTLTLNVKSEKVYTRHGVPISVTGIAQVKIQGQNKEMLAAACQMFLGKTEAEIAHIALETLEGHQRAIMAHMTVEEIYKDRQKFSEQVFKVASSDLVNMGISVVSYTLKDIHDDQDYLHSLGKARTAQVQKDARIGEAEAKRDAGIREAKAKQEKVSAQYLSEIEMAKAQRDYELKKAAYDIEVNTRRAQADLAYQLQVAKTKQQIEEQRVQVQVVERAQQVAVQEQEIARREKELEARVRKPAEAERYKLERLAEAEKSQLIMQAEAEAASVRMRGEAEAFAIGARARAEAEQMAKKAEAFQLYQEAAQLDMLLEKLPQVAEEISGPLTSANKITLVSSGSGTMGAAKVTGEVLDILTRLPESVERLTGVSISQVNHKPLRTA
B2: the binding entry in test [2] and in test [3] was “binds” each time.

These data come from paper PMC2671458.
